# Laboratory results: PubChem BioAssay AID504842 (National Center for Advancing Translational Sciences (NCATS), 2011)
# In all, about 330,000 compounds went through this assay and about 100 (0.03%) were called active. Inconclusive means that the source gave no clear call. Such entries were picked first, then a sample of the others. Calls come from the whole dose curve; as a rule, active = well fitted inhibition curve with a large enough effect; inconclusive = small, poorly fitted or top-dose-only effect; inactive = flat fitted curve, though single readings scatter. Potencies beside an inconclusive call are fits to weak or partial responses and may not hold up.
# Test system: Chaperonin Mm-Cpn (Methanococcus maripaludis)
# Assay: Inhibitors of TCP-1 ring complex (TRiC) of Methanococcus maripaludis (MmCpn): qHTS; note: nearly all actives have a fitted effect of over 80% in size;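 for Potency: enzyme at 25 nM with ATP substrate at 10 µM during the reaction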
# Settings: purified Mm-Cpn ATPase, ADP Transcreener TR-FRET; series mostly up to 76.9 µM; activity, negative = inhibition: at the top concentration
# Method in brief: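 TR-FRET (320 nm excitation; 590 and 665 nm emission) reports ADP made from 10 uM ATP by 25 nM enzyme; compounds were preincubated 10 min, reaction run 30 min, both at 37°C.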
# % is set by controls: 0 for no effect and ±100 for the full control effect; potency is the fitted concentration of half-maximal effect.
Structure (SMILES),Potency,"activity, negative = inhibition"
O=C1CSC(c2cn(-c3ccccc3)nc2-c2cc3ccccc3oc2=O)N1Cc1ccco1 (centres undefined),"inconclusive: 112 µM [inhibitor, single point]",
COc1cccc(C2=NNC(=NCc3ccccc3)SC2)c1,,inactive: -1.21%
O=C(COc1ccc(C(=S)N2CCC(Cc3ccccc3)CC2)cc1)N1CCOCC1,"inconclusive: 5.62 µM [inhibitor, single point]",
CCOC(=O)N1CCC(NC(=O)c2ccc3c(c2)N=C(C)c2ccccc2S3)CC1,,inactive: 0.326%
CN1CCC(=NNC(=O)C(=O)NC2CCCC2)CC1,,inactive: 2.03%
Cc1cccc(Cn2c(=O)c3c(nc4n3CCN4Cc3ccco3)n(C)c2=O)c1,"inconclusive: 89.1 µM [inhibitor, single point]",
O=C(NCCN1C(=O)S/C(=C\c2cccs2)C1=O)[C@H](Cc1ccccc1)N1C(=O)c2ccccc2C1=O,"inconclusive: 100 µM [inhibitor, single point]",
O=C(Nc1ccc(F)c(F)c1)c1ccccc1-c1ccccc1,,inactive: 2.44%
COc1cccc(NC(=O)CN(C)C(=O)CSCc2nc3scc(-c4cccs4)c3c(=O)[nH]2)c1,"inconclusive: 10 µM [inhibitor, single point]",
COc1ccc(CC(=O)Nc2ccccc2C(C)=O)cc1S(=O)(=O)N1CCOCC1,,inactive: -17.1%
S=C(c1ccccc1)N1CCN(C(=S)c2ccccc2)CC1,"inconclusive: 56.2 µM [inhibitor, single point]",
CCOc1ccc(Cl)cc1/C=N/NC(N)=O,"inconclusive: 22.4 µM [inhibitor, single point]",
O=C(CCC1N=C2c3ccccc3N=C(SCC(=O)NCc3ccco3)N2C1=O)NCc1ccco1 (centres undefined),,inactive: 2.19%
COc1ccc(N2CCN(C(=O)CSc3nnc4c(C)cc5c(C)cc(C)cc5n34)CC2)cc1,,inactive: 4.39%
C=CCNC(=O)CSc1nnc(-c2cccs2)o1,,inactive: -3.08%
Cc1ccc(Cn2ncc(Cl)c(Cl)c2=O)cc1,,inactive: -3.82%
COc1ccc(NC(=O)COC(=O)Cn2cnc3ccccc32)cc1,,inactive: -0.144%
O=C(c1ccccc1)C1Oc2ccccc2C2CC(c3cccs3)=NN12 (centres undefined),"inconclusive: 316 µM [inhibitor, partial curve, poor fit]",
O=C(NCC1CCCO1)c1ccccc1-c1nc(-c2ccccc2Cl)no1 (centres undefined),"inconclusive: 56.2 µM [inhibitor, single point]",
COc1cccc(Nc2nc(-c3ccc4c(c3)OCCO4)cs2)c1,"inconclusive: 79.4 µM [inhibitor, single point]",
Cn1cc(Br)c(C(=O)Nc2c(F)c(F)c(F)c(F)c2F)n1,,inactive: 0.437%
CCOc1ccc(NC(=O)CN(C)C(=O)c2ccc(OCc3ccccc3)c(OC)c2)cc1OCC,,inactive: 4.7%
Cc1cccc(N2CC(C(=O)Nc3nnc(SCc4ccccn4)s3)CC2=O)c1 (centres undefined),,inactive: -2.88%

Structure (SMILES),Potency,"activity, negative = inhibition"
O=C(CN1CCN(C2CCS(=O)(=O)C2)CC1)N1N=C(c2ccc(Cl)cc2)CC1c1ccco1 (centres undefined),,inactive: -0.933%
Cc1ccc(SC2=C(Sc3ccc(C)cc3)C(=O)c3ccccc3C2=O)cc1,"inconclusive: 224 µM [inhibitor, partial curve, poor fit]",
CC(=O)Nc1ccc(N2C(=O)c3cccc4c(O)ccc(c34)C2=O)cc1,"inconclusive: 100 µM [inhibitor, single point]",
CC1CCN(c2c(NCC3CCC(C(=O)NCc4ccccc4)CC3)c(=O)c2=O)CC1 (centres undefined),"inconclusive: 25.1 µM [inhibitor, single point]",
O=C(/C=C/c1ccc(F)cc1)NNC(=O)CCN1CCN(Cc2ccccc2)CC1,,inactive: -0.519%
O=C(COC(=O)c1c2c(nc3ccccc13)CCCC2)c1ccc(Br)s1,"inconclusive: 79.4 µM [inhibitor, partial curve, poor fit]",
COc1cc2c3nnc(-c4ccccc4)c-3cn(Cc3ccc(F)cc3)c2cc1OC,,inactive: 0.891%
COC(=O)c1ccc(C(=O)OC)c(NC(=O)C(C)(C)C)c1,"inconclusive: 100 µM [inhibitor, single point]",
O=C(CSc1nnc(-c2ccc(Cl)cc2)n1Cc1ccco1)Nc1ccc2c(c1)OCCO2,,inactive: 1.39%
O=C(c1ccc(Br)s1)N1CCN(c2ccccn2)CC1,"inconclusive: 282 µM [inhibitor, partial curve, poor fit]",
COc1ccc(NC(=O)c2ccc(NC(=O)COC(=O)CC(NC(=O)c3ccccc3Cl)c3ccccc3)cc2)cc1 (centres undefined),"inconclusive: 79.4 µM [inhibitor, single point]",
Cc1ccc(S(=O)(=O)c2nc(-c3ccc(F)cc3)oc2SCC(N)=O)cc1,,inactive: -0.272%
Cc1ccc(CCNC(=O)C2CCN(S(=O)(=O)c3ccc4c(c3)oc(=O)n4C)CC2)cc1,"inconclusive: 25.1 µM [inhibitor, single point]",
COc1ccccc1-n1ccnc(SCC(=O)NCCc2ccccc2)c1=O,"inconclusive: 56.2 µM [inhibitor, partial curve, poor fit]",
COc1ccc(C(C)=O)cc1CSc1nnc(C)n1-c1ccccc1,"inconclusive: 63.1 µM [inhibitor, single point]",
CC1=C(C(=O)OCc2ccccc2)C(/C=C/c2ccccc2)NC(=S)N1 (centres undefined),,inactive: -2.36%
COc1ccc(C(=O)C2CCCN(C(=O)c3cc(C4CC4)[nH]n3)C2)c(C)c1 (centres undefined),"inconclusive: 14.1 µM [inhibitor, single point]",
Cc1onc(-c2ccccc2)c1C(O)c1ccc(F)cc1 (centres undefined),"inconclusive: 22.4 µM [inhibitor, single point]",
CCOc1cc(/C=C2/C(=O)N(c3ccccc3)N=C2C)ccc1OC(=O)c1ccco1,,inactive: -1.86%
CN(C)C(=O)NC(NC(=S)Nc1ccccc1)C(Cl)(Cl)Cl (centres undefined),,inactive: 0.718%
Cc1ccc(-c2noc(CCC(=O)Nc3ccc(C)cn3)n2)cc1,,inactive: -6.71%
CCN(C(=O)CN1C(=O)c2ccc([N+](=O)[O-])cc2C1=O)C1CCCCC1,"inconclusive: 56.2 µM [inhibitor, single point]",
COc1ccc(OC)c(CCNC(=O)c2ccc3c(c2)N(Cc2ccc(F)cc2)CCS3)c1,"inconclusive: 100 µM [inhibitor, single point]",

# Complete entries, looked up by structure.
# O=C(/C=C/c1ccc(F)cc1)NNC(=O)CCN1CCN(Cc2ccccc2)CC1 as listed: activity, negative = inhibition: inactive: -0.519%
# COc1ccc(NC(=O)c2ccc(NC(=O)COC(=O)CC(NC(=O)c3ccccc3Cl)c3ccccc3)cc2)cc1 (centres undefined) as listed: Potency: inconclusive: 79.4 µM [inhibitor, single point]

# More entries follow:

Structure (SMILES),Potency,"activity, negative = inhibition"
CCOC(=O)CNC(=O)c1ccc(SCC)cc1,,inactive: -3.97%
Cc1cc2ccccc2n1CCNC(=O)c1ccc(S(=O)(=O)N2CCOCC2)cc1,active: 31.6 µM,
COc1cc(-c2nc3cccc(C)n3c2NCC2CCCO2)ccc1O (centres undefined),"inconclusive: 316 µM [inhibitor, partial curve, poor fit]",
O=c1c2cnn(-c3ccccc3)c2nc(-c2cccs2)n1-c1cccc(Cl)c1,"inconclusive: 89.1 µM [inhibitor, single point]",
c1ccc(CC[C@@H]2CC[C@@H](CCc3ccccc3)N2)cc1,"inconclusive: 5.62 µM [inhibitor, single point]",
Cc1nnc(NC(=O)c2cccc(S(=O)(=O)N3CCN(C)CC3)c2)s1,"inconclusive: 112 µM [inhibitor, single point]",
COc1ccccc1NS(=O)(=O)c1ccc(C)c(C(=O)Nc2cc(C)on2)c1,"inconclusive: 22.4 µM [inhibitor, single point]",
CN(Cc1cnccn1)C(=O)CC1C(=O)NCCN1Cc1ccc(F)cc1Cl (centres undefined),"inconclusive: 25.1 µM [inhibitor, single point]",
O=C(NC1CCCCC1)c1noc2c1CCCCC2,"inconclusive: 6.31 µM [inhibitor, partial curve, poor fit]",
O=C(NC1CC1)c1cccc(NC(=O)c2cn3ccccc3n2)c1,"inconclusive: 79.4 µM [inhibitor, single point]",
C/C(=C\C(=O)N1CCc2ccccc21)C(=O)O,"inconclusive: 63.1 µM [inhibitor, partial curve, poor fit]",
O=C(N=c1ccn(-c2nc3ccccc3nc2NS(=O)(=O)c2ccccc2)cc1)c1cccs1,"inconclusive: 100 µM [inhibitor, single point]",
CCn1c(=O)cc(OCC(=O)N2CCCCCC2)c2ccccc21,"inconclusive: 22.4 µM [inhibitor, single point]",
C/C(O)=C(/C#N)c1nc2ccccc2[nH]1,,inactive: -0.891%
C/C(=N\NC(=O)CCc1ccccc1)c1ccc(Br)cc1,"inconclusive: 63.1 µM [inhibitor, partial curve, poor fit]",
COCCOc1ccc(C(F)(F)F)cc1NC(=O)COC(=O)c1c(C)noc1C,"inconclusive: 89.1 µM [inhibitor, single point]",
COCc1c(C(=O)N2CCN(Cc3c(F)cccc3Cl)CC2)oc2ccccc12,,inactive: -0.753%
CCOc1ccccc1/C=C(\C#N)C(=O)Nc1cccc(C(=O)O)c1,"inconclusive: 15.8 µM [inhibitor, single point]",
COc1ccc(C2C(C(=O)/C=C/c3ccco3)=C(O)C(=O)N2CCN2CCOCC2)cc1 (centres undefined),"inconclusive: 63.1 µM [inhibitor, single point]",
COc1ccccc1NC(=O)CSc1nnc(-c2ccoc2C)n1CCc1ccccc1,"inconclusive: 22.4 µM [inhibitor, single point]",
CCN(CC)c1ccc(NC(=O)COC(=O)COc2ccccc2[N+](=O)[O-])cc1,"inconclusive: 100 µM [inhibitor, single point]",
Cc1cc(C(=O)OCC(=O)NCc2ccco2)c(C)n1-c1ccc(F)cc1,"inconclusive: 100 µM [inhibitor, single point]",
O=C(O)C1OC(Oc2c(-c3ccc(O)c(O)c3)oc3cc(O)cc(O)c3c2=O)C(O)C(O)C1O (centres undefined),"inconclusive: 11.2 µM [inhibitor, single point]",

# Quoted from the entries so far for reference:
Structure (SMILES),Potency,"activity, negative = inhibition"
Cc1nnc(NC(=O)c2cccc(S(=O)(=O)N3CCN(C)CC3)c2)s1,"inconclusive: 112 µM [inhibitor, single point]",
COc1ccccc1NS(=O)(=O)c1ccc(C)c(C(=O)Nc2cc(C)on2)c1,"inconclusive: 22.4 µM [inhibitor, single point]",
